Data taken from PubChem BioAssay AID1224904, deposited by Broad Institute (2016).

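293T-iDUX4 dual-reporter cells; luminescence of the tet-on Italica luciferase control is read after 24 h.
The test concentration is not given here.
Percent change in the Italica control signal; more negative values mean stronger inhibition, which points to nonspecific, tet-on or cytotoxic effects.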

Values are in %.
Common to all entries: measured here: Italica tet-on control reporter.
This is a side read-out of the assay, for part of the compounds, not drawn at random.

- N#C[C@@H]1[C@H](c2ccccc2C2=CCCCC2)[C@@H](CO)N1C(=O)c1cccc(F)c1 : activity change -24.93%
- C[C@H]1CN([C@@H](C)CO)C(=O)c2c(c3ccccc3n2C)-c2ccccc2CO[C@H]1CN(C)S(=O)(=O)c1ccc(F)cc1 : activity change -76.4%
- O=C(C[C@@H]1CC[C@H]2[C@@H](COC[C@H](O)CN2Cc2ccc(C(F)(F)F)cc2)O1)NCCc1ccccc1 : activity change -33.06%
- C[C@@H]1CN([C@@H](C)CO)S(=O)(=O)c2ccc(C3=CCCCC3)cc2O[C@@H]1CN(C)Cc1ccccc1F : activity change -47.51%
- O=C(C[C@@H]1CC[C@H]2[C@@H](COC[C@@H](O)CN2C(=O)c2ccccc2F)O1)NCc1ccc(Cl)cc1 : activity change -39.62%
- C[C@H](CO)N1C[C@H](C)[C@@H](CN(C)C(=O)Nc2ccc3c(c2)OCO3)OCc2cn(nn2)CCCC1=O : activity change 7.323%
- COc1ccc2c3c(n(C)c2c1)[C@@H](CO)N(Cc1ccccc1OC)CC31CN(CC2CCOCC2)C1 : activity change -1.685%
- N#C[C@@H]1[C@@H](c2ccccc2-c2cccc(F)c2)[C@H](CO)N1C(=O)NC1CCCCC1 : activity change -13.31%
- COc1ccc2c3c(n(C)c2c1)[C@H](CO)N(C(C)=O)CC31CCN(Cc2ccc(Cl)cc2)CC1 : activity change -79.34%
- COc1ccc2c3c([nH]c2c1)[C@H](CO)N(CC1CC1)CC31CCN(C(=O)c2ccccc2F)CC1 : activity change -6.422%
- Cc1ccccc1-c1ccc([C@H]2[C@@H](CO)N3CCCCN(S(=O)(=O)c4ccc(F)cc4)C[C@@H]23)cc1 : activity change -85.86%
- CS(=O)(=O)N1CC(=O)N2[C@H](C1)[C@H](c1ccc(C#CCc3ccccc3)cc1)[C@@H]2CO : activity change 1.591%
- C[C@H](NC(=O)[C@H]1[C@H](CO)[C@H]2Cn3c(cccc3=O)[C@H]2N1CC1CCCCC1)c1ccccc1 : activity change -16.04%
- O=C(C[C@H]1CC[C@@H]2[C@H](COC[C@@H](O)CN2C(=O)Nc2ccc(Cl)c(Cl)c2)O1)NCc1ccc(F)cc1 : activity change -11.68%
- Cn1cnc(S(=O)(=O)N2C[C@@H]3N[C@H](C2)C3c2ccc(/C=C/c3ccccc3)cc2)c1 (stereo not given in full) : activity change -10.91%
- Cc1cccc(-c2ccc([C@H]3[C@@H](CO)N4CCCCN(C(=O)c5ccncc5)C[C@@H]34)cc2)c1 : activity change -72.15%
- C[C@@H]1CN([C@@H](C)CO)C(=O)c2c(c3ccccc3n2C)-c2ccccc2CO[C@H]1CN(C)S(=O)(=O)c1cccc(F)c1 : activity change -9.268%
- C[C@@H]1CN([C@H](C)CO)C(=O)c2c(c3ccccc3n2C)-c2ccccc2CO[C@@H]1CN(C)S(=O)(=O)c1ccc([N+](=O)[O-])cc1 : activity change -29.67%
- COc1ccc2c3c([nH]c2c1)[C@H](CO)N(C(=O)Nc1ccc(F)cc1)CC31CCN(S(=O)(=O)c2ccccc2)CC1 : activity change -49.17%
- Cc1ccc(S(=O)(=O)N2CC[C@@H]3[C@H](CO)Nc4ccc(-c5cccc(C(=O)N(C)C)c5)cc4[C@@H]32)cc1 : activity change -66.79%
- CO[C@H]1CN(C)C(=O)c2cc(NS(=O)(=O)c3ccc(Cl)cc3)ccc2OC[C@@H](C)N(C(=O)NC(C)C)C[C@H]1C : activity change -33.91%
- C/C=C/c1ccc([C@@H]2[C@H]3CN(C(=O)Nc4ccc(OC)cc4)CCCCN3[C@H]2CO)cc1 : activity change 2.277%

For reference, 2 entries once more:

{"compound": "C/C=C/c1ccc([C@@H]2[C@H]3CN(C(=O)Nc4ccc(OC)cc4)CCCCN3[C@H]2CO)cc1", "activity change (%)": "2.277"}
{"compound": "C[C@@H]1CN([C@@H](C)CO)S(=O)(=O)c2ccc(C3=CCCCC3)cc2O[C@@H]1CN(C)Cc1ccccc1F", "activity change (%)": "-47.51"}